Where two headings read alike, the source gives them in different places.
Legend:
[1] = Body weight and splenocyte counts 7 days after trauma (NS-398 twice a day over 7 days); format: in vivo, BALB/c mice
Experimental: Animals, Experimental Protocol, NS-398 preparation were as described in Example I. Macrophages were prepared as described initially under “Macrophage Preparation ” in Example I. After lysis of erythrocytes with ammonium chloride solution and centrifugation as described in Example I, macrophages were further prepared by resuspending the pellet in RPMI-1640 (Gibco BRL, Life Technologies Inc) containing 2 mmol/L L-glutamine, 100 U/mL penicillin, 100 μg/mL streptomycin, 0.25 μg/mL amphotericin B, and 10% heat-inactivated fetal calf serum (Gibco BRL, Life Technologies Inc), counted via hemocytometer and diluted to a final concentration of 5×10^6 cells/mL, and plated in 96 well plates in a volume of 0.2 mL per well. After allowing macrophages to adhere for 2 hours, the remaining cells were suctioned off and the macrophages were cultured in the +/−1 ng LPS 055:B5 (Sigma, St. Louis, Mo.) per mL at 37° C. in 5% carbon dioxide incubators. Supernatants were harvested at 24 hours and stored at −70° C. until analysis for batch enzyme-linked immunosorbent assay processing to determine prostaglandin and cytokine production.
Body weight and splenocyte recovery after injury±NS-398 were recorded.
BALB/C mice (n=8/group) were given 10mg/kg NS398 intraperitoneally BID for 7 days, starting immediately after sham injury or trauma (femur fracture+40% hemorrhage). Four groups, sham+placebo (C); sham+NS398 (CN); trauma+placebo (T); or trauma+NS398 (TN) were studied. On day 7 after trauma, mice were sacrificed and splenic macrophages evaluated for PGE2, TNF-α and NO production (via Student's t-test). In a separate study, mice (n=10-11/group) were traumatized and given NS398 for 7 days. On day 7, cecal ligation and puncture was performed, and mice evaluated for survival over 3 weeks (via Log-rank test).

[2] = Control (sham) + NS-398, 7 days after injury
[3] = Trauma + NS-398, 7 days after injury

CS(=O)(=O)Nc1ccc([N+](=O)[O-])cc1OC1CCCCC1 [NS-398, N-(2-cyclohexyloxy-4-nitrophenyl)methanesulfonamide]
Spleen wt [2]: 87.3 ± 3.2 mg | Total Splenocytes/Mouse [2]: 8.8 ± 0.6 × 10^6 | Spleen wt [3]: 125.3 ± 5.4 mg | Total Splenocytes/Mouse [3]: 10.9 ± 0.8 × 10^6 | Total Splenoctyes/mouse ([1]; Control + NS-398, day 7): 8.8 ± 1.6 × 10^6 | Total Splenoctyes/mouse ([1]; Trauma + NS-398, day 7): 10.9 ± 2.3 × 10^6 | differences in splenocyte counts ([1]; control versus trauma±NS-398 mice): no differences
